Measured values: publication PMC7581431
Results are given in words; binding and its absence hold for the method and conditions named. In cells and extracts the contact can be indirect. A yes stands for co-enrichment or nearness to the bait. Other partners may have been found.

T1: Nkd1-BirA* (murine) (UniProt Q99MH6)
T1 sequence: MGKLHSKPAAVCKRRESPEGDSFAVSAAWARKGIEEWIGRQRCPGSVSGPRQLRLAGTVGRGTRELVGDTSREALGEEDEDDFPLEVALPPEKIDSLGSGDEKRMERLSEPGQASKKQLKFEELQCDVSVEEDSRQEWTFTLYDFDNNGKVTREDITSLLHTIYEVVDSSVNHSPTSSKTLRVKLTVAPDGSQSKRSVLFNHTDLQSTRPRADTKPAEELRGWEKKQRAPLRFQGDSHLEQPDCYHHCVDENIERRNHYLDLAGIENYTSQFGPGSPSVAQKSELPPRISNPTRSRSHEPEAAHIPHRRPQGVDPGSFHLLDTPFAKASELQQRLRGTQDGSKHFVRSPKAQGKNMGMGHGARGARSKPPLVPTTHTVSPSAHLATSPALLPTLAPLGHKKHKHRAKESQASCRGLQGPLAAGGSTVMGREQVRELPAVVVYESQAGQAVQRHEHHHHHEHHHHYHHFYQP


Biological target: T1, Nkd1-BirA* (murine)
Experiment: proximity labelling; BioID with mass spectrometry; BirA* baits stably integrated in Flp-In-T-REx-293 cells, tetracycline-induced, Wnt3a-conditioned media and 50 μM biotin for 12 hr; streptavidin pull-down; hits specific if counts >5 fold over GFP-BirA*; hits may be direct binders or vicinal …

Binder	binding
DVL1 (protein, UniProt O14640 1-695) MAETKIIYHMDEEETPYLVKLPVAPERVTLADFKNVLSNRPVHAYKFFFKSMDQDFGVVKEEIFDDNAKLPCFNGRVVSWLVLAEGAHSDAGSQGTDSHTDLPPPLERTGGIGDSRPPSFHPNVASSRDGMDNETGTESMVSHRRERARRRNREEAARTNGHPRGDRRRDVGLPPDSASTALSSELESSSFVDSDEDGSTSRLSSSTEQSTSSRLIRKHKRRRRKQRLRQADRASSFSSITDSTMSLNIVTVTLNMERHHFLGISIVGQSNDRGDGGIYIGSIMKGGAVAADGRIEPGDMLLQVNDVNFENMSNDDAVRVLREIVSQTGPISLTVAKCWDPTPRSYFTVPRADPVRPIDPAAWLSHTAALTGALPRYGTSPCSSAVTRTSSSSLTSSVPGAPQLEEAPLTVKSDMSAVVRVMQLPDSGLEIRDRMWLKITIANAVIGADVVDWLYTHVEGFKERREARKYASSLLKHGFLRHTVNKITFSEQCYYVFGDLCSNLATLNLNSGSSGTSDQDTLAPLPHPAAPWPLGQGYPYQYPGPPPCFPPAYQDPGFSYGSGSTGSQQSEGSKSSGSTRSSRRAPGREKERRAAGAGGSGSESDHTAPSGVGSSWRERPAGQLSRGSSPRSQASATAPGLPPPHPTTKAYTVVGGPPGGPPVRELAAVPPELTGSRQSFQKAMGNPCEFFVDIM	binds
AMER1 (protein, UniProt Q5JTC6 1-1135) METQKDEAAQAKGAAASGSTREQTAEKGAKNKAAEATEGPTSEPSSSGPGRLKKTAMKLFGGKKGICTLPSFFGGGRSKGSGKGSSKKGLSKSKTHDGLSEAAHGPEDVVSEGTGFSLPLPELPCQFPSSQSAHGALETGSRCKTSVAGATEKAVAEKFPSMPKPKKGLKGFFSSIRRHRKSKVTGAEQSEPGAKGPERVRARPHEHVSSAPQVPCFEETFQAPRKENANPQDAPGPKVSPTPEPSPPATEKMACKDPEKPMEACASAHVQPKPAPEASSLEEPHSPETGEKVVAGEVNPPNGPVGDPLSLLFGDVTSLKSFDSLTGCGDIIAEQDMDSMTDSMASGGQRANRDGTKRSSCLVTYQGGGEEMALPDDDDEEEEEEEEVELEEEEEEVKEEEEDDDLEYLWETAQMYPRPNMNLGYHPTTSPGHHGYMLLDPVRSYPGLAPGELLTPQSDQQESAPNSDEGYYDSTTPGFEDDSGEALGLVRRDCLPRDSYSGDALYEFYEPDDSLENSPPGDDCLYDLHGRSSEMFDPFLNFEPFLSSRPPGAMETEEERLVTIQKQLLYWELRREQLEAQEARAREAHAREAHAREAYTREAYGREAYAREAHTWEAHGREARTREAQAREVRCRETQVRETQARQEKPVLEYQMRPLGPSVMGLAAGVSGTSQISHRGITSAFPTTASSEPDWRDFRPLEKRYEGTCSKKDQSTCLMQLFQSDAMFEPDMQEANFGGSPRRAYPTYSPPEDPEEEEVEKEGNATVSFSQALVEFTSNGNLFSSMSCSSDSDSSFTQNLPELPPMVTFDIADVERDGEGKCEENPEFHNDEDLAASLEAFELGYYHKHAFNNYHSRFYQGLPWGVSSLPRYLGLPGLHPRPPPAAMALNRRSRSLDTAETLEMELSNSHLVQGYLESDELQAQQEDSDEEDEEEEEGEWSRDSPLSLYTEPPGAYDWPAWAPCPLPVGPGPAWISPNQLDRPSSQSPYRQATCCIPPMTMSISLSVPESRAPGESGPQLARPSHLHLPMGPCYNLQPQASQSMRARPRDVLLPVDEPSCSSSSGGFSPSPLPQAKPVGITHGIPQLPRVRPEHPQPQPTHYGPSSLDLSKERAEQGASLATSYSSTAMNGNLAK	binds
VANGL1 (protein, UniProt Q8TAA9 1-524) MDTESTYSGYSYYSSHSKKSHRQGERTRERHKSPRNKDGRGSEKSVTIQPPTGEPLLGNDSTRTEEVQDDNWGETTTAITGTSEHSISQEDIARISKDMEDSVGLDCKRYLGLTVASFLGLLVFLTPIAFILLPPILWRDELEPCGTICEGLFISMAFKLLILLIGTWALFFRKRRADMPRVFVFRALLLVLIFLFVVSYWLFYGVRILDSRDRNYQGIVQYAVSLVDALLFIHYLAIVLLELRQLQPMFTLQVVRSTDGESRFYSLGHLSIQRAALVVLENYYKDFTIYNPNLLTASKFRAAKHMAGLKVYNVDGPSNNATGQSRAMIAAAARRRDSSHNELYYEEAEHERRVKKRKARLVVAVEEAFIHIQRLQAEEQQKAPGEVMDPREAAQAIFPSMARALQKYLRITRQQNYHSMESILQHLAFCITNGMTPKAFLERYLSAGPTLQYDKDRWLSTQWRLVSDEAVTNGLRDGIVFVLKCLDFSLVVNVKKIPFIILSEEFIDPKSHKFVLRLQSETSV	binds
